In PMC13143212:
These are yes or no findings as the source states them, for the method shown. In cells and extracts the contact can be indirect. Some entries that bind do so weakly or less than the wild type.

The chains behind the UniProt entries cited, without tags or fusion partners. Where a name states a change or a piece, a line headed by the entry shows the natural chain unless it says otherwise. A line that says so, or that is headed by a name, gives the form on record, which may keep a tag or linker. Residues count along the entry.
STIM2.2 fused to YFPn (Q9P246, residues 15-746): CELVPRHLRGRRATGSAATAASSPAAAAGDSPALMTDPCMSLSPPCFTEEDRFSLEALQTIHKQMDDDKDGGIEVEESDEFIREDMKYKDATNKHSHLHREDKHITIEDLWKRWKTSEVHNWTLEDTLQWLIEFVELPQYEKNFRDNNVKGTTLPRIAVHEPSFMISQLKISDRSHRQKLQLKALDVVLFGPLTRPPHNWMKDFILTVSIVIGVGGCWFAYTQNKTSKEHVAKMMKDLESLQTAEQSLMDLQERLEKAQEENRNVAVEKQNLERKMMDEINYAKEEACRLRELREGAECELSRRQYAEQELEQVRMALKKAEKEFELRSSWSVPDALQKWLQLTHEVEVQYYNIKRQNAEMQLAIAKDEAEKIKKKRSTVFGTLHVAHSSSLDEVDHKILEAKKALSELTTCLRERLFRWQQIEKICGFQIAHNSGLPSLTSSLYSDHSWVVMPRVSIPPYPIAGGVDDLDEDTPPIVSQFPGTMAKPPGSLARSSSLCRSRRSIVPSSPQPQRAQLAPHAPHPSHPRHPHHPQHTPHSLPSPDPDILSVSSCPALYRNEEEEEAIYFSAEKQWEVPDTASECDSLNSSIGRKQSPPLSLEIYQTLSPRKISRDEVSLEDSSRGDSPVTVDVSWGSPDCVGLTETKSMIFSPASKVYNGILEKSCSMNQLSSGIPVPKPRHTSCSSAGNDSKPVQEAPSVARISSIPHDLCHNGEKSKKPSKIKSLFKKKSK
HA-STIM2.3 fused to YFPc (Q9P246, form named): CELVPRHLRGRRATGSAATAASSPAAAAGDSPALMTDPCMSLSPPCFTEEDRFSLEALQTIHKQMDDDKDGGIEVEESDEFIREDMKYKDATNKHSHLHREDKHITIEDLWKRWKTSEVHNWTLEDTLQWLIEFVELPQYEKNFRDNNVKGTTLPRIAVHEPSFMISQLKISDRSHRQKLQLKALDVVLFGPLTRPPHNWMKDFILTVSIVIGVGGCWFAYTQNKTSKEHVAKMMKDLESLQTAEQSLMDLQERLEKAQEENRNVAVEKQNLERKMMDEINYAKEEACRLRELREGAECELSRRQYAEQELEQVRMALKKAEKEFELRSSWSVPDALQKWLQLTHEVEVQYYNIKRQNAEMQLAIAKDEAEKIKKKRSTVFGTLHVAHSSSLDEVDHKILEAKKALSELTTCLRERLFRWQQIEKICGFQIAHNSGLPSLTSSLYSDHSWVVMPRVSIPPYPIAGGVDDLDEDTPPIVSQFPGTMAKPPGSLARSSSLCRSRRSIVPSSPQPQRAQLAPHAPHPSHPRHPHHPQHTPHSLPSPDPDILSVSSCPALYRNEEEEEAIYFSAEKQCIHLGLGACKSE
UniProt Q96SN7: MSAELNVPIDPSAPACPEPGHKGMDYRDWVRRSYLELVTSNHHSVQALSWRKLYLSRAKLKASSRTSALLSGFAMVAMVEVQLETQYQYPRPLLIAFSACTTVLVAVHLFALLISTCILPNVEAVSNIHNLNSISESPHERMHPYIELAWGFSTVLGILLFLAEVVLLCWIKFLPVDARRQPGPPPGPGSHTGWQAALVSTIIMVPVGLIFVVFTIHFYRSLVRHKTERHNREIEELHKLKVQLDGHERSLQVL
UniProt Q13586, residues 23-685: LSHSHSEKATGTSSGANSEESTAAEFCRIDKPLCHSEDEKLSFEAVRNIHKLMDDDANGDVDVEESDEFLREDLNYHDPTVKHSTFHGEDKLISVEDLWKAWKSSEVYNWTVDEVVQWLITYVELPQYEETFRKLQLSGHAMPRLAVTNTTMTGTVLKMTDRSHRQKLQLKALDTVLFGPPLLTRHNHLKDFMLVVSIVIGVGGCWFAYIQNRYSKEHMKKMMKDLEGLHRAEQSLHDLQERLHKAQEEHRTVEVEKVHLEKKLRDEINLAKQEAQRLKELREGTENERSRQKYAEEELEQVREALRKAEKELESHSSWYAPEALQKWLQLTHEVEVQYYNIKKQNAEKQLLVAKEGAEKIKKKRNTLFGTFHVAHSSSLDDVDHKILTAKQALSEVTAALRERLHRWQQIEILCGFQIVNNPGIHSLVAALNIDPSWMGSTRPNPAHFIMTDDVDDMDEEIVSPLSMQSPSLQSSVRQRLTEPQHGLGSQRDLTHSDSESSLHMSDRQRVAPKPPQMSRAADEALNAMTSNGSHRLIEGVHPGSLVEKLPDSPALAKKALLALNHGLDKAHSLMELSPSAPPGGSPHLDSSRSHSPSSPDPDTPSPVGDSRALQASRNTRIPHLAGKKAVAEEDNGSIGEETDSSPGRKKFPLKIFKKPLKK

The substances below were run against HA-STIM2.3 fused to YFPc (human) (UniProt Q9P246) (assay: split reporter; BiFC in HEK STIM1/2 DKO cells: HA-STIM2 variant-YFPc as bait, protein of interest-YFPn as prey, equimolar DNA; 1 µM TG for 10 min 24 h after transfection; percent YFP-positive viable cells by flow cytometry).

| Substance | binding |
| --- | --- |
| STIM2.2 fused to YFPn (from UniProt Q9P246-1 15-746) | binds |
| ORAI2 fused to YFPn (from UniProt Q96SN7 1-254) | binds |
| STIM1 fused to YFPn (from UniProt Q13586 23-685) | binds |
